Reference: PubChem BioAssay AID1159584 (Peter MacCallum Cancer Centre, 2016)
Aim: 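Knock-downs that harm CDH1-null cells more than parental MCF10A cells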 (primary screen). Cell system: human MCF10A breast epithelial cells, parental and CDH1-null. Knock-down reagent: siRNA against human genes. Detection: 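Cell viability by CellTiter-Glo ATP luminescence, each line scaled to the mean of mock wells across plates, then CDH1-null over parental ratio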. Direction: CDH1-null / parental viability ratio: higher = CDH1-null cells survive relatively better than parental; CDH1-null viability vs mock: higher = more viable CDH1-null cells. Units: CDH1-null viability vs mock in fraction of mock.
The deposit covers about 18,000 reagents; below is a random part of them. Not all columns of the deposit are shown. The record does not give: the amount of reagent, the time to read-out.

After knock-down of ZSCAN5B (zinc finger and SCAN domain containing 5B) the results were CDH1-null / parental viability ratio 0.99; CDH1-null viability vs mock 0.85.
After knock-down of WBP11 (WW domain binding protein 11) the results were CDH1-null / parental viability ratio 2.06; CDH1-null viability vs mock 0.66.
CALD1 (caldesmon 1) gave CDH1-null / parental viability ratio 1.05; CDH1-null viability vs mock 0.96.
Against FUT3 (fucosyltransferase 3 (Lewis blood group)) the deposit lists CDH1-null / parental viability ratio 1.28; CDH1-null viability vs mock 1.15.
Against F2R (coagulation factor II thrombin receptor), the values are CDH1-null / parental viability ratio 0.78; CDH1-null viability vs mock 0.94.
After knock-down of BAGE5 (BAGE family member 5), the screen gave CDH1-null / parental viability ratio 1.03; CDH1-null viability vs mock 0.95.
With knock-down of SORL1 (sortilin related receptor 1) the results were CDH1-null / parental viability ratio 0.78; CDH1-null viability vs mock 0.56.
FKBP9 (FKBP prolyl isomerase 9) scored CDH1-null / parental viability ratio 0.83; CDH1-null viability vs mock 0.87.
With knock-down of EEF1AKMT2 (EEF1A lysine methyltransferase 2), the screen gave CDH1-null / parental viability ratio 0.82; CDH1-null viability vs mock 0.66.
PPIL2 (peptidylprolyl isomerase like 2) showed CDH1-null / parental viability ratio 0.83; CDH1-null viability vs mock 0.72.
Against H3C10 (H3 clustered histone 10), the entry reads CDH1-null / parental viability ratio 1.18; CDH1-null viability vs mock 0.78.
For HUNK (hormonally up-regulated Neu-associated kinase), the entry reads CDH1-null / parental viability ratio 0.87; CDH1-null viability vs mock 0.65.
ASXL2 (ASXL transcriptional regulator 2) gave CDH1-null / parental viability ratio 1.06; CDH1-null viability vs mock 0.86.
After knock-down of IRS4 (insulin receptor substrate 4), the record shows CDH1-null / parental viability ratio 1.21; CDH1-null viability vs mock 1.04.
CYB561D1 (cytochrome b561 family member D1) scored CDH1-null / parental viability ratio 0.84; CDH1-null viability vs mock 0.57.
Silencing of RAB3IP (RAB3A interacting protein) gave: CDH1-null / parental viability ratio 1.02; CDH1-null viability vs mock 0.85.
WASHC4 (WASH complex subunit 4) showed CDH1-null / parental viability ratio 1.05; CDH1-null viability vs mock 0.64.
Against SCGB2A1 (secretoglobin family 2A member 1) the deposit lists CDH1-null / parental viability ratio 0.95; CDH1-null viability vs mock 0.92.
With knock-down of FKBP4 (FKBP prolyl isomerase 4), the screen gave CDH1-null / parental viability ratio 1.04; CDH1-null viability vs mock 1.02.
With knock-down of SLC6A11, the record shows CDH1-null / parental viability ratio 1.39; CDH1-null viability vs mock 0.78.
SEC14L1 (SEC14 like lipid binding 1) gave CDH1-null / parental viability ratio 0.94; CDH1-null viability vs mock 0.96.
With knock-down of CWC15 (CWC15 spliceosome associated protein) the results were CDH1-null / parental viability ratio 0.59; CDH1-null viability vs mock 0.41.
For ADAMTS9 (ADAM metallopeptidase with thrombospondin type 1 motif 9) the deposit lists CDH1-null / parental viability ratio 1.21; CDH1-null viability vs mock 0.97.
PCDH17 (protocadherin 17) gave CDH1-null / parental viability ratio 0.94; CDH1-null viability vs mock 0.73.

3 entries already listed, ordered by “CDH1-null viability vs mock”, ascending:
HUNK (hormonally up-regulated Neu-associated kinase): CDH1-null / parental viability ratio = 0.87; CDH1-null viability vs mock = 0.65
H3C10 (H3 clustered histone 10): CDH1-null / parental viability ratio = 1.18; CDH1-null viability vs mock = 0.78
ASXL2 (ASXL transcriptional regulator 2): CDH1-null / parental viability ratio = 1.06; CDH1-null viability vs mock = 0.86
